PubChem BioAssay AID504764, Drosophila RNAi Screening Center – 2011
Test: 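Genome-wide screen for regulators of Notch-driven gene expression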 (primary screen). Cell system: Drosophila Kc167 cells. Knock-down reagent: long dsRNA against Drosophila genes. Timing: about 5 days (4 days dsRNA, then 24 h after transfection). Treatment: transfection of constitutively active membrane-tethered Notch lacking the extracellular domain, read 24 h later. Measured: 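Firefly luciferase from an E(spl)m3 reporter with active Notch, plus control-promoter and uninduced reporter wells for normalisation; unnormalised counts, duplicate wells a and b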. Scale: induced reporter light, run 1, well a and induced reporter light, run 1, well b: higher = more light from the Notch target reporter with active Notch; control promoter light, run 1, well a and control promoter light, run 1, well b: higher = more light from the viral control promoter (cell number, transfection, viability); uninduced reporter light, run 1, well a: higher = more light from the Notch target reporter without active Notch. Call rule: 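Wells with low control signal or poorly matching duplicates excluded; duplicates averaged; per source plate, z beyond ±2 for induced/control log2 ratio or beyond ±1.8 for induced/uninduced marks a hit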. Calls: active = modifier hit (raised or lowered Notch signal); inactive = not a hit.
The screen tested about 22,000 reagents; shown is an unselected part of those with a known target gene and a result. Of all reagents, 403 (1.9%) got an active call. 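Unnormalised raw counts per well; ratio z-scores behind the hit calls and whether each hit raises or lowers signal are not deposited.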 Names joined by + are all predicted targets of the reagent. No sequences are given here. Not given: the amount of reagent.

Target gene | amplicon | induced reporter light, run 1, well a | induced reporter light, run 1, well b | control promoter light, run 1, well a | control promoter light, run 1, well b | uninduced reporter light, run 1, well a | call
Gprk2 (GeneID 49045) | DRSC16682 | 90035 | 94980 | 1.07e5 | 1.13e5 | 7900 | inactive
CycH (GeneID 40429) | DRSC11861 | 1.21e5 | 1.26e5 | 1.19e5 | 1.13e5 | 7755 | inactive
Arp6 (GeneID 32514) | DRSC19326 | 1.42e5 | 1.41e5 | 1.74e5 | 2.03e5 | 9825 | inactive
CG30031 + deltaTry + CG30025 + 1 more | DRSC21262 | 99800 | 1.10e5 | 1.10e5 | 1.44e5 | 8810 | inactive
CG6665 (GeneID 36903) | DRSC07006 | 95815 | 1.19e5 | 2.09e5 | 2.08e5 | 9810 | inactive
ATPsynF (GeneID 37931) | DRSC04482 | 61530 | 62520 | 51900 | 57865 | 4240 | inactive
CG6659 (GeneID 32854) | DRSC20003 | 1.26e5 | 97125 | 85365 | 64070 | 7370 | inactive
CG12983 (GeneID 40319) | DRSC11692 | 1.44e5 | 1.03e5 | 86380 | 95650 | 9145 | inactive
CG4751 (GeneID 34551) | DRSC02776 | 2.06e5 | 2.16e5 | 2.06e5 | 1.94e5 | 17500 | inactive
CG5280 (GeneID 39033) | DRSC10498 | 1.77e5 | 1.54e5 | 1.97e5 | 1.59e5 | 12425 | inactive
CG31957 (GeneID 319046) | DRSC00207 | 98530 | 87575 | 1.31e5 | 1.41e5 | 7095 | inactive
Hsp67Ba (GeneID 39076) | DRSC11191 | 1.28e5 | 87095 | 1.25e5 | 1.19e5 | 7710 | inactive
CG13070 (GeneID 39782) | DRSC09953 | 1.90e5 | 2.20e5 | 2.76e5 | 2.53e5 | 8760 | inactive
icln (GeneID 36997) | DRSC07630 | 1.24e5 | 93940 | 99625 | 1.25e5 | 11255 | inactive
CR31958 (GeneID 33603) | DRSC00282 | 2.20e5 | 1.70e5 | 1.85e5 | 1.84e5 | 12800 | inactive
CG14628 (GeneID 31057) | DRSC18626 | 1.06e5 | 1.05e5 | 1.71e5 | 1.81e5 | 7210 | inactive
CG4641 (retired record) (GeneID 39053) | DRSC10439 | 1.63e5 | 1.18e5 | 1.12e5 | 83645 | 14715 | inactive
RhoGAP93B (GeneID 42496) | DRSC15488 | 1.62e5 | 1.39e5 | 1.60e5 | 1.71e5 | 12615 | inactive
CG10516 (GeneID 39738) | DRSC09738 | 1.72e5 | 1.51e5 | 2.73e5 | 2.36e5 | 8130 | inactive
Pxn (GeneID 38326) | DRSC08685 | 1.04e5 | 1.14e5 | 2.22e5 | 2.28e5 | 7520 | inactive
CG34263 (GeneID 5740488) | DRSC07866 | 1.61e5 | 1.54e5 | 1.51e5 | 1.63e5 | 15375 | inactive
CG11899 (GeneID 46391) | DRSC16656 | 1.24e5 | 1.12e5 | 1.59e5 | 1.56e5 | 9535 | inactive
stx (GeneID 32005) | DRSC18442 | 6555 | 5980 | 11930 | 11060 | 3178 | inactive
stx (GeneID 32005) | DRSC18443 | 30155 | 30990 | 73375 | 54050 | 6165 | inactive
Dredd (GeneID 31011) | DRSC18461 | 43025 | 47530 | 47545 | 59000 | 3035 | inactive
rad50 (GeneID 37564) | DRSC04523 | 2.21e5 | 2.53e5 | 1.81e5 | 1.97e5 | 16138 | inactive
CecA1 (GeneID 43596) | DRSC16603 | 1.74e5 | 1.41e5 | 1.94e5 | 1.99e5 | 11160 | inactive

An excerpt taken from the entries so far, as a working copy:
Target gene | amplicon | induced reporter light, run 1, well a | induced reporter light, run 1, well b | control promoter light, run 1, well a | control promoter light, run 1, well b | uninduced reporter light, run 1, well a | call
CG13070 (GeneID 39782) | DRSC09953 | 1.90e5 | 2.20e5 | 2.76e5 | 2.53e5 | 8760 | inactive
icln (GeneID 36997) | DRSC07630 | 1.24e5 | 93940 | 99625 | 1.25e5 | 11255 | inactive
CR31958 (GeneID 33603) | DRSC00282 | 2.20e5 | 1.70e5 | 1.85e5 | 1.84e5 | 12800 | inactive
CG14628 (GeneID 31057) | DRSC18626 | 1.06e5 | 1.05e5 | 1.71e5 | 1.81e5 | 7210 | inactive
CG4641 (retired record) (GeneID 39053) | DRSC10439 | 1.63e5 | 1.18e5 | 1.12e5 | 83645 | 14715 | inactive
RhoGAP93B (GeneID 42496) | DRSC15488 | 1.62e5 | 1.39e5 | 1.60e5 | 1.71e5 | 12615 | inactive
CG10516 (GeneID 39738) | DRSC09738 | 1.72e5 | 1.51e5 | 2.73e5 | 2.36e5 | 8130 | inactive
Pxn (GeneID 38326) | DRSC08685 | 1.04e5 | 1.14e5 | 2.22e5 | 2.28e5 | 7520 | inactive
CG34263 (GeneID 5740488) | DRSC07866 | 1.61e5 | 1.54e5 | 1.51e5 | 1.63e5 | 15375 | inactive
CG11899 (GeneID 46391) | DRSC16656 | 1.24e5 | 1.12e5 | 1.59e5 | 1.56e5 | 9535 | inactive

Further records follow.
Target gene | amplicon | induced reporter light, run 1, well a | induced reporter light, run 1, well b | control promoter light, run 1, well a | control promoter light, run 1, well b | uninduced reporter light, run 1, well a | call
Obp50c + Obp50b | DRSC05482 | 1.85e5 | 2.99e5 | 3.08e5 | 3.90e5 | 16525 | inactive
p47 (GeneID 35674) | DRSC06046 | 70070 | 51925 | 53265 | 56160 | 3780 | inactive
raptor (GeneID 31543) | DRSC18359 | 68745 | 79695 | 1.43e5 | 1.16e5 | 7815 | inactive
Kpc2 (GeneID 37261) | DRSC07635 | 32125 | 31205 | 37995 | 30270 | 2995 | inactive
Gld2 (GeneID 42602) | DRSC15863 | 14425 | 14255 | 17635 | 16545 | 4788 | inactive
nst (GeneID 39434) | DRSC09755 | 1.86e5 | 2.26e5 | 1.50e5 | 90185 | 17550 | inactive
Vrp1 (GeneID 37521) | DRSC04148 | 2.14e5 | 2.34e5 | 2.09e5 | 2.34e5 | 15345 | inactive
CG3430 (GeneID 33976) | DRSC02713 | 2.05e5 | 1.98e5 | 1.81e5 | 1.77e5 | 18615 | inactive
zf30C (GeneID 34292) | DRSC03641 | 2.76e5 | 3.07e5 | 2.70e5 | 2.70e5 | 22430 | inactive
CG9555 (GeneID 34223) | DRSC03264 | 1.25e5 | 1.40e5 | 82115 | 96270 | 15635 | inactive
Gr21a (GeneID 33251) | DRSC00366 | 1.23e5 | 1.18e5 | 1.16e5 | 68710 | 9520 | inactive
faf (GeneID 43749) | DRSC16942 | 1.38e5 | 1.49e5 | 2.57e5 | 2.35e5 | 10332 | inactive
cu (GeneID 41339) | DRSC15643 | 91975 | 1.11e5 | 1.02e5 | 79600 | 5415 | inactive
cu (GeneID 41339) | DRSC15648 | 80885 | 82095 | 56685 | 63560 | 3990 | inactive
CG7203 (GeneID 34055) | DRSC03026 | 1.06e5 | 1.30e5 | 96680 | 1.17e5 | 18615 | inactive
Galphas (GeneID 37805) | DRSC04616 | 1.99e5 | 2.11e5 | 1.60e5 | 1.58e5 | 15950 | inactive
CG17242 (GeneID 59226) | DRSC00493 | 1.17e5 | 99740 | 1.03e5 | 74145 | 10565 | inactive
Mi-2 + Su(Tpl) | DRSC09640 | 2.46e5 | 2.80e5 | 3.60e5 | 2.98e5 | 19350 | inactive
CG17807 (GeneID 37585) | DRSC04296 | 1.74e5 | 1.73e5 | 1.55e5 | 1.32e5 | 11755 | inactive
yki (GeneID 37851) | DRSC04437 | 1.18e5 | 1.23e5 | 99160 | 1.20e5 | 9582 | inactive
CG14391 (GeneID 41567) | DRSC14850 | 50395 | 57990 | 61495 | 54505 | 2020 | inactive
CG7656 (GeneID 39691) | DRSC10900 | 1.80e5 | 1.63e5 | 1.65e5 | 2.13e5 | 13835 | inactive
Marf1 (GeneID 49895) | DRSC03747 | 45735 | 52480 | 39225 | 35875 | 2585 | inactive
Marf1 (GeneID 49895) | DRSC03774 | 80965 | 85230 | 71230 | 78280 | 8680 | inactive
CG14500 (GeneID 37087) | DRSC06471 | 1.11e5 | 79010 | 1.24e5 | 1.24e5 | 8295 | inactive
Fatp3 (GeneID 37887) | DRSC04366 | 1.76e5 | 1.65e5 | 1.49e5 | 1.45e5 | 12335 | inactive
bur (GeneID 45830) | DRSC03163 | 1.67e5 | 1.92e5 | 1.65e5 | 1.77e5 | 13940 | inactive
Obp56c (GeneID 170882) | DRSC06552 | 1.01e5 | 77560 | 1.39e5 | 94625 | 7450 | inactive
Hgsnat (GeneID 31423) | DRSC18405 | 2.89e5 | 2.45e5 | 4.37e5 | 3.86e5 | 15825 | inactive
thetaTry (GeneID 36218) | DRSC07705 | 1.53e5 | 1.60e5 | 1.91e5 | 1.63e5 | 12842 | inactive
Ih (GeneID 36589) | DRSC07445 | 1.48e5 | 1.31e5 | 1.52e5 | 1.53e5 | 14050 | inactive
RpS9 (GeneID 39108) | DRSC11273 | 47895 | 45825 | 43080 | 33430 | 3130 | active
mAChR-C (GeneID 31626) | DRSC17890 | 1.34e5 | 1.19e5 | 2.08e5 | 2.57e5 | 10685 | inactive
Spn42Dc (GeneID 35600) | DRSC05010 | 1.49e5 | 1.77e5 | 2.04e5 | 1.94e5 | 14295 | inactive
beat-IIIb (GeneID 35031) | DRSC02435 | 1.56e5 | 1.59e5 | 1.60e5 | 1.79e5 | 13470 | inactive
CG9308 (GeneID 37507) | DRSC04539 | 44340 | 43215 | 42110 | 30940 | 2570 | inactive
Slc25A46b (GeneID 35081) | DRSC02888 | 1.02e5 | 1.21e5 | 1.25e5 | 1.40e5 | 8080 | inactive
